Measurements: PubChem BioAssay AID328 (DTP/NCI, 2004)
The list is a part of this screen's results and no random one: it is rich in T/C values a quarter to a half above the control, in often repeated tests (any T/C) and in doses without a T/C. Further doses and runs are listed elsewhere. T/C gives the treated animals as a percentage of the vehicle group. Some doses have a count of surviving animals in place of a T/C: the source holds a T/C of zero for them, seemingly a mark for toxic or unscored doses. Some doses without a T/C left all or most animals alive at the check, yet need not have been tolerated: the source hardly ever lists a survival T/C far under the control, and the zero likely stands for such cases as well. Counts of survivors are from the toxicity check (mostly the fifth day) where no day follows; animals may have died later. Schedule codes are those of the source, taken here to give the interval after Q, in days (D) or hours (H), and the number of doses after X. For survival time, the PubChem record calls one and a half times the control and up active, and a quarter to a half above the control has no call in these data; cut-offs in other NCI protocols can differ. Some doses were run more than once; their values stand side by side, smallest first. Some T/C values carry the count of animals alive at the toxicity check (mostly the fifth day); where none is given, no animal had died by that day.

System: BDF1 mice, P388 leukemia ip, median survival T/C
Test: NCI In Vivo Anticancer Drug Screen. Data for tumor model P388 Leukemia (intraperitoneal) in B6D2F1 (BDF1) mice
Conditions: T/C endpoint: median survival time, higher T/C = longer survival
Description: The antitumor activity of compounds was measured in mice bearing transplantable tumors. Survival or tumor size were measured and the results are expressed as the measurement made in the treated group (T) divided by the measurement made in the vehicle treated control group (C). The tumor model used in this assay is P388 Leukemia (intraperitoneal) in B6D2F1 (BDF1) mice

[1] = dose: 200.0 mg/kg/injection, schedule: Q04DX003 (ip), vehicle: Klucel (hydroxypropylcellulose) (HPC)
[2] = dose: 50.0 mg/kg/injection, schedule: Q01DX009 (ip), vehicle: saline
[3] = dose: 100.0 mg/kg/injection, schedule: Q01DX009 (ip), vehicle: saline
[4] = dose: 200.0 mg/kg/injection, schedule: Q01DX009 (ip), vehicle: saline
[5] = dose: 200.0 mg/kg/injection, schedule: Q01DX009 (ip), vehicle: saline with Tween-80
[6] = dose: 25.0 mg/kg/injection, schedule: Q01DX001 (ip), vehicle: saline with Tween-80
[7] = dose: 50.0 mg/kg/injection, schedule: Q01DX001 (ip), vehicle: saline with Tween-80
[8] = dose: 400.0 mg/kg/injection, schedule: Q04DX003 (ip), vehicle: saline
[9] = dose: 200.0 mg/kg/injection, schedule: Q04DX003 (ip), vehicle: saline
[10] = dose: 12.0 mg/kg/injection, schedule: Q01DX009 (ip), vehicle: Klucel (hydroxypropylcellulose) (HPC)
[11] = dose: 400.0 mg/kg/injection, schedule: Q04DX003 (ip), vehicle: Klucel (hydroxypropylcellulose) (HPC)

**Q.** Which T/C (dose: 14.06 mg/kg/injection, schedule: Q01DX009 (ip), vehicle: Klucel (hydroxypropylcellulose) (HPC)) does the source give for ClCc1ccc(CCl)cc1 here?
**A.** Its T/C is 125 % of control.

**Q.** And the T/C (dose: 28.12 mg/kg/injection, schedule: Q01DX009 (ip), vehicle: Klucel (hydroxypropylcellulose) (HPC))?
**A.** The T/C was 140 % of control.

**Q.** And the survivor count (dose: 56.25 mg/kg/injection, schedule: Q01DX009 (ip), vehicle: Klucel (hydroxypropylcellulose) (HPC))?
**A.** Its survivor count is 6 of 6.

**Q.** And the survivor count (dose: 112.5 mg/kg/injection, schedule: Q01DX009 (ip), vehicle: Klucel (hydroxypropylcellulose) (HPC))?
**A.** The survivor count was 5 of 6.

**Q.** What about the survivor count (dose: 225.0 mg/kg/injection, schedule: Q01DX009 (ip), vehicle: Klucel (hydroxypropylcellulose) (HPC)) of the same compound?
**A.** Its survivor count is 1 of 6.

**Q.** CCOC(=O)C(=O)Cc1sccc1[N+](=O)[O-] was tested. Which survivor count [1] did it give?
**A.** Its survivor count is 6 of 6.

**Q.** Cc1ccccc1N=P(c1ccccc1)(c1ccccc1)c1ccccc1 was tested. Which survivor count (dose: 200.0 mg/kg/injection, schedule: Q01DX009 (ip), vehicle: gum acacia) did it give?
**A.** The survivor count was 6 of 6.

**Q.** What about the survivor count (dose: 400.0 mg/kg/injection, schedule: Q04DX003 (ip), vehicle: gum acacia) of the same compound?
**A.** Its survivor count is 6 of 6.

**Q.** With CCN(CC)CCCCCCCNc1cc(OC)cc2c(C)ccnc12 as the compound, how does the survivor count [2] read?
**A.** The survivor count was 1 of 6.

**Q.** What about the survivor count [3] of the same compound?
**A.** The survivor count was 0 of 6.

**Q.** And the survivor count [4]?
**A.** Its survivor count is 0 of 6.

**Q.** Which results are given for O=C(O)c1ccc([N+](=O)[O-])s1?
**A.** survivor count [5]: 6 of 6; survivor count (dose: 400.0 mg/kg/injection, schedule: Q04DX003 (ip), vehicle: saline with Tween-80): 5 of 6

**Q.** COc1cc2cc(c1Cl)N(C)C(=O)CC(OC(C)=O)C1(C)OC1C(C)C1CC(O)(NC(=O)O1)C(OC)C=C/C=C(\C)C2 (stereo unspecified) was tested. Which T/C (dose: 0.1 micrograms/kg/injection, schedule: Q01DX009 (ip), vehicle: saline + alcohol) did it give?
**A.** The T/C was 135 % of control.

**Q.** And the T/C (dose: 3.1 micrograms/kg/injection, schedule: Q01DX009 (ip), vehicle: saline + alcohol)?
**A.** Its T/C is 133 % of control.

**Q.** What about the T/C (dose: 6.2 micrograms/kg/injection, schedule: Q01DX009 (ip), vehicle: saline + alcohol) of the same compound?
**A.** Its T/C is 145 % of control.

**Q.** What about the T/C (dose: 12.5 micrograms/kg/injection, schedule: Q01DX009 (ip), vehicle: saline + alcohol) of the same compound?
**A.** The T/C was 140 % of control.

**Q.** And the survivor count (dose: 200.0 micrograms/kg/injection, schedule: Q01DX009 (ip), vehicle: saline + alcohol)?
**A.** The survivor count was 1 of 4.

**Q.** What about the survivor count (dose: 400.0 micrograms/kg/injection, schedule: Q01DX009 (ip), vehicle: saline + alcohol) of the same compound?
**A.** Its survivor count is 0 of 4.

**Q.** Which survivor count [6] does the source give for O=C(O)c1ccc(O)c(=O)cc1 here?
**A.** Its survivor count is 3 of 6.

**Q.** What about the survivor count [7] of the same compound?
**A.** Its survivor count is 1 of 6.

**Q.** Which results are given for CCCNc1ncnc2c1cnn2C?
**A.** survivor count [2]: 6 of 6; survivor count [3]: 6 of 6; survivor count [4]: 0 of 6; survivor count [8]: 1 of 6

**Q.** How did the T/C (dose: 1.4 mg/kg/injection, schedule: Q01DX009 (ip), vehicle: saline) turn out when C1CN1P1(N2CC2)=NP(N2CC2)(N2CC2)=NP(N2CC2)(N2CC2)=N1 was run?
**A.** The T/C was 127 % of control.

**Q.** What about the survivor count (dose: 5.0 mg/kg/injection, schedule: Q01DX009 (ip), vehicle: saline) of the same compound?
**A.** Its survivor count is 6 of 6.

**Q.** Which results are given for CCCCNP(=O)(N1CC1)N1CC1?
**A.** T/C (dose: 18.0 mg/kg/injection, schedule: Q04DX003 (ip), vehicle: saline with Tween-80): 137 % of control; survivor count (dose: 100.0 mg/kg/injection, schedule: Q04DX003 (ip), vehicle: saline): 2 of 6; survivor count [9]: 1 of 6; survivor count [8]: 0 of 6

**Q.** Which survivor count [4] does the source give for OC(c1ccc(Cl)cc1)C1CCNCC1 (stereo unspecified) here?
**A.** Its survivor count is 2 of 6.

**Q.** How did the T/C (dose: 12.5 mg/kg/injection, schedule: Q04DX003 (ip), vehicle: saline) turn out when FC(F)(F)c1ccc2c(c1)N(CCCN1CCN(CCOCCCl)CC1)c1ccccc1S2 was run?
**A.** The T/C was 130 % of control.

**Q.** What about the T/C (dose: 25.0 mg/kg/injection, schedule: Q04DX003 (ip), vehicle: saline) of the same compound?
**A.** Its T/C is 125 and 141 % of control.

**Q.** And the T/C (dose: 50.0 mg/kg/injection, schedule: Q04DX003 (ip), vehicle: saline)?
**A.** The T/C was 134 and 135 % of control.

**Q.** Which survivor count [6] does the source give for Cc1ccc(C2=C(Cl)C(=O)NC2=O)s1 here?
**A.** The survivor count was 2 of 6.

**Q.** What about the survivor count [7] of the same compound?
**A.** The survivor count was 0 of 6.

**Q.** With COc1cc2c3c(c1O)C1(C=CC(=O)C=C1)CC3N(C)CC2 (stereo unspecified) as the compound, how does the T/C [5] read?
**A.** Its T/C is 133 % of control [5 of 6 alive].

**Q.** What about the survivor count (dose: 400.0 mg/kg/injection, schedule: Q01DX009 (ip), vehicle: saline with Tween-80) of the same compound?
**A.** Its survivor count is 4 of 6.

**Q.** What does the source list for C[CH2][Pb]([CH2]C)([CH2]C)[O]C(=O)COc1ccccc1?
**A.** T/C (dose: 1.5 mg/kg/injection, schedule: Q01DX009 (ip), vehicle: Klucel (hydroxypropylcellulose) (HPC)): 132 % of control; T/C (dose: 3.0 mg/kg/injection, schedule: Q01DX009 (ip), vehicle: Klucel (hydroxypropylcellulose) (HPC)): 125 % of control [5 of 6 alive]; T/C (dose: 3.0 mg/kg/injection, schedule: Q04DX003 (ip), vehicle: saline with Tween-80): 137 % of control; T/C (dose: 3.12 mg/kg/injection, schedule: Q01DX009 (ip), vehicle: saline with Tween-80): 137 and 138 % of control; T/C (dose: 6.0 mg/kg/injection, schedule: Q04DX003 (ip), vehicle: saline with Tween-80): 145 % of control; survivor count [10]: 2 of 6; survivor count (dose: 12.5 mg/kg/injection, schedule: Q01DX009 (ip), vehicle: saline with Tween-80): 2 of 6; survivor count (dose: 25.0 mg/kg/injection, schedule: Q01DX009 (ip), vehicle: saline with Tween-80): 0 of 6

**Q.** Which results are given for C[C@H]1CN1C1=CC(=O)C(N2C[C@@H]2C)=CC1=O?
**A.** T/C (dose: 0.06 mg/kg/injection, schedule: Q01DX009 (ip), vehicle: saline): 127 % of control; T/C (dose: 0.25 mg/kg/injection, schedule: Q01DX009 (ip), vehicle: saline): 131 % of control; T/C (dose: 2.0 mg/kg/injection, schedule: Q01DX009 (ip), vehicle: saline): 133 % of control; survivor count (dose: 4.0 mg/kg/injection, schedule: Q01DX009 (ip), vehicle: saline): 6 of 6; survivor count (dose: 8.0 mg/kg/injection, schedule: Q01DX009 (ip), vehicle: Klucel (hydroxypropylcellulose) (HPC)): 6 of 6; survivor count (dose: 8.0 mg/kg/injection, schedule: Q01DX009 (ip), vehicle: saline): 4 of 6

**Q.** With S=C1SCCS1 as the compound, how does the survivor count [9] read?
**A.** Its survivor count is 6 of 6.

**Q.** And the survivor count [8]?
**A.** The survivor count was 6 of 6.

**Q.** S=C1NC(c2ccccc2)NC(c2ccccc2)S1 (stereo unspecified) was tested. Which survivor count (dose: 400.0 mg/kg/injection, schedule: Q01DX001 (ip), vehicle: Klucel (hydroxypropylcellulose) (HPC)) did it give?
**A.** The survivor count was 6 of 6.

**Q.** What does the source list for CN(C)c1cc2nc[nH]c(=O)c2cc1[N+](=O)[O-]?
**A.** survivor count [1]: 0 of 6; survivor count [11]: 0 of 6

**Q.** Which results are given for CCC(C)(O)C#CC#CC(C)(O)CC (stereo unspecified)?
**A.** survivor count (dose: 100.0 mg/kg/injection, schedule: Q04DX003 (ip), vehicle: Klucel (hydroxypropylcellulose) (HPC)): 5 of 6; survivor count [1]: 5 of 6; survivor count [11]: 0 of 6

**Q.** With CN1c2ccccc2C(=O)N2CCc3c([nH]c4ccccc34)C21 (stereo unspecified) as the compound, how does the T/C (dose: 40.0 mg/kg/injection, schedule: Q01DX009 (ip), vehicle: saline with Tween-80) read?
**A.** The T/C was 126 % of control.

**Q.** For CCOC(=O)Cc1c[nH]c2ccc(N(CCCl)CCCl)cc12, which T/C (dose: 0.3 mg/kg/injection, schedule: Q01DX009 (ip), vehicle: Klucel (hydroxypropylcellulose) (HPC)) is on record?
**A.** Its T/C is 137 % of control.

**Q.** What about the T/C (dose: 0.4 mg/kg/injection, schedule: Q04DX003 (ip), vehicle: Klucel (hydroxypropylcellulose) (HPC)) of the same compound?
**A.** Its T/C is 129 and 140 % of control.

**Q.** And the T/C (dose: 0.6 mg/kg/injection, schedule: Q04DX003 (ip), vehicle: Klucel (hydroxypropylcellulose) (HPC))?
**A.** Its T/C is 140 % of control.

**Q.** What about the survivor count [10] of the same compound?
**A.** Its survivor count is 6 of 6.

**Q.** And the survivor count (dose: 19.0 mg/kg/injection, schedule: Q04DX003 (ip), vehicle: Klucel (hydroxypropylcellulose) (HPC))?
**A.** Its survivor count is 3 of 6.

**Q.** For Cn1c(Cl)nc2c(Cl)nc(Cl)nc21, which survivor count (dose: 32.0 mg/kg/injection, schedule: Q01DX009 (ip), vehicle: Klucel (hydroxypropylcellulose) (HPC)) is on record?
**A.** Its survivor count is 2 of 6.

**Q.** Which results are given for Cc1cc(N(CCCl)CCCl)ccc1N=Nc1ccccc1C(=O)O?
**A.** T/C (dose: 5.0 mg/kg/injection, schedule: Q01DX010 (ip), vehicle: saline): 140 % of control; T/C (dose: 10.0 mg/kg/injection, schedule: Q01DX010 (ip), vehicle: saline): 145 % of control; survivor count (dose: 40.0 mg/kg/injection, schedule: Q01DX010 (ip), vehicle: saline): 6 of 6
